Results are given in words; binding and its absence hold for the method and conditions named. Some binding calls cover weakened binding; strength is not graded here.
Molecular target: butyrylcholine esterase (BCHE) (human (endogenous in plasma)) (UniProt P06276)
Test: multiplexed sandwich immunoassay (Luminex bead array); capture antibody against one protein on colour-coded magnetic beads, labelled detection antibody against the other protein, streptavidin-R-PE read-out; EDTA plasma diluted from 1:20 in 4-fold steps (6 points, duplicate) in PVXC buffer with 10% rabbit IgG, heat-treated (56 °C, 30 min) or untreated, overnight

Protein sequences, listed by entry. Tags and fused reporters are not part of them. Residues count along the entry.
UniProt P06276, residues 29-602: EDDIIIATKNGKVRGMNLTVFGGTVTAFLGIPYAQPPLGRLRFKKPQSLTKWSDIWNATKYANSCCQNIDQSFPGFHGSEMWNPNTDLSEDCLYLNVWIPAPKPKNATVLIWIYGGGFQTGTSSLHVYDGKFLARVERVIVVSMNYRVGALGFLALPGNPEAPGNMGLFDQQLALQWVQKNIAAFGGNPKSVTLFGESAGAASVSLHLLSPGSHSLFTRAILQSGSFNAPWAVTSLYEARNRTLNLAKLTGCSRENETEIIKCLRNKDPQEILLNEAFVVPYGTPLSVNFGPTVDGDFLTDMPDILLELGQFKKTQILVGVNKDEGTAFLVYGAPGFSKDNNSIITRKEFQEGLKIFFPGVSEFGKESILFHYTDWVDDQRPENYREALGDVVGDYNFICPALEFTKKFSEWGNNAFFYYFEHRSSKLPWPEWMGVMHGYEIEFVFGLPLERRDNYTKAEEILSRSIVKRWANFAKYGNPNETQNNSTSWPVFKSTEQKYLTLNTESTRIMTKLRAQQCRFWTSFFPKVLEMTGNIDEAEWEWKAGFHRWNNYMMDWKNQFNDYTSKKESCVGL
UniProt P18065, residues 36-325: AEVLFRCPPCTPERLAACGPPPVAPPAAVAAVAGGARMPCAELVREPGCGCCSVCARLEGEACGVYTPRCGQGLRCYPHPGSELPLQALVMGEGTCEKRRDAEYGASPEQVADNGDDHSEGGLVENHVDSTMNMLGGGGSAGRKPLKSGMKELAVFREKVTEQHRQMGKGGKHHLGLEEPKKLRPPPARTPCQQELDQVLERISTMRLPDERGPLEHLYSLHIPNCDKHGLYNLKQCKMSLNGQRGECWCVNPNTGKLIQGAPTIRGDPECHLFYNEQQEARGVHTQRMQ

insulin growth factor binding protein 2 (IGFBP2) (from UniProt P18065 36-325)
binding: binds

Reference: publication PMC6554399
